Data as given in PubChem BioAssay AID1259405 (NCATS, 2018).

Purpose: 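Mouse-designed siRNAs used to find CHO productivity engineering targets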 (primary screen)
Cells: Chinese hamster CHO-K1 ovary cells with stable secreted eGFP expression
Reagents: single siRNA against mouse genes, 0.8 pmol siRNA per well (2 µl of 400 nM stock)
Timing: 3 days
Detection: 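Percent of the per-plate non-targeting control median for intracellular GFP per well by laser scanning cytometry and for cell viability by ATP luminescence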
Scale: GFP, % of control: higher = more GFP per well, higher productivity; viability (ATP), % of control: higher = more viable cells (more ATP)
Call rule: 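Called active when intracellular GFP, relative to negative control, is at or above 120%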
Shown is an unselected part of about 50,000 reagents tested. Of all reagents, about 4,000 (8%) got an active call. 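Mouse siRNA library applied to hamster cells; one well for each siRNA.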 The numbers tell different reagents against one gene apart.

| Gene | reagent no. | GFP, % of control | viability (ATP), % of control | activity call |
| --- | --- | --- | --- | --- |
| Me3 (GeneID 109264) | 1 | 84.3 | 79.6 | inactive |
| Me3 (GeneID 109264) | 2 | 73.8 | 62.9 | inactive |
| Me3 (GeneID 109264) | 3 | 92 | 88.5 | inactive |
| Pde4b (GeneID 18578) | 1 | 45.4 | 37.8 | inactive |
| Pde4b (GeneID 18578) | 2 | 50.9 | 43 | inactive |
| Pde4b (GeneID 18578) | 3 | 84.8 | 91.7 | inactive |
| Fhdc1 (GeneID 229474) | 1 | 69.2 | 84.2 | inactive |
| Fhdc1 (GeneID 229474) | 2 | 50.6 | 65.8 | inactive |
| Fhdc1 (GeneID 229474) | 3 | 105 | 76.1 | inactive |
| Rpp25 (GeneID 102614) | 1 | 53.2 | 59.4 | inactive |
| Rpp25 (GeneID 102614) | 2 | 31.3 | 30.4 | inactive |
| Rpp25 (GeneID 102614) | 3 | 61.9 | 67 | inactive |
| Supt3 (GeneID 109115) | 1 | 65.7 | 77.7 | inactive |
| Supt3 (GeneID 109115) | 2 | 69.1 | 63.6 | inactive |
| Supt3 (GeneID 109115) | 3 | 79.7 | 84.6 | inactive |
| Ankle2 (GeneID 71782) | 1 | 84.1 | 81.1 | inactive |
| Ankle2 (GeneID 71782) | 2 | 97.9 | 57.2 | inactive |
| Ankle2 (GeneID 71782) | 3 | 76 | 79.4 | inactive |
| Sh3bp5 (GeneID 24056) | 1 | 99.8 | 60 | inactive |
| Sh3bp5 (GeneID 24056) | 2 | 74.8 | 74.8 | inactive |
| Sh3bp5 (GeneID 24056) | 3 | 90.4 | 86.1 | inactive |
| Dpy19l3 (GeneID 233115) | 1 | 74.9 | 52.7 | inactive |
| Dpy19l3 (GeneID 233115) | 2 | 58.9 | 56 | inactive |
| Dpy19l3 (GeneID 233115) | 3 | 62.4 | 78.2 | inactive |
| Chm (GeneID 12662) | 1 | 94.5 | 88.2 | inactive |
| Chm (GeneID 12662) | 2 | 151 | 114 | active |
| Chm (GeneID 12662) | 3 | 94.3 | 89.9 | inactive |
| Vmn1r228 (GeneID 171226) | 1 | 81.3 | 91.2 | inactive |
| Vmn1r228 (GeneID 171226) | 2 | 64 | 63.4 | inactive |
| Vmn1r228 (GeneID 171226) | 3 | 54.7 | 63.9 | inactive |
| Lancl1 (GeneID 14768) | 1 | 60.5 | 103 | inactive |
| Lancl1 (GeneID 14768) | 2 | 65.9 | 77.2 | inactive |
| Casp6 (GeneID 12368) | 1 | 99 | 76.5 | inactive |
| Casp6 (GeneID 12368) | 2 | 49.4 | 67.4 | inactive |
| Casp6 (GeneID 12368) | 3 | 113 | 60.4 | inactive |
| Ppp4r4 (GeneID 74521) | 1 | 75.5 | 81.3 | inactive |
| Ppp4r4 (GeneID 74521) | 2 | 52.6 | 83.7 | inactive |
| Ppp4r4 (GeneID 74521) | 3 | 127 | 131 | active |
| Smgc (GeneID 223809) | 1 | 83.9 | 70.6 | inactive |
| Smgc (GeneID 223809) | 2 | 140 | 91.5 | active |
| Smgc (GeneID 223809) | 3 | 98.5 | 60.9 | inactive |
| Foxn3 (GeneID 71375) | 1 | 70.2 | 71.9 | inactive |
| Foxn3 (GeneID 71375) | 2 | 90.8 | 75.5 | inactive |
| Nptn (GeneID 20320) | 1 | 51.2 | 81.2 | inactive |
| Nptn (GeneID 20320) | 2 | 66.5 | 80.7 | inactive |
| Nptn (GeneID 20320) | 3 | 21.6 | 81.3 | inactive |
| Epb41l4a (GeneID 13824) | 1 | 69.7 | 85 | inactive |
| Epb41l4a (GeneID 13824) | 2 | 25.4 | 18 | inactive |
| Epb41l4a (GeneID 13824) | 3 | 86.8 | 86.5 | inactive |
| Vamp3 (GeneID 22319) | 1 | 57 | 83.1 | inactive |
| Vamp3 (GeneID 22319) | 2 | 49.1 | 42 | inactive |
| Vamp3 (GeneID 22319) | 3 | 92.7 | 76.9 | inactive |
| Atg7 (GeneID 74244) | 1 | 148 | 112 | active |
| Atg7 (GeneID 74244) | 2 | 64.3 | 54.3 | inactive |
| Atg7 (GeneID 74244) | 3 | 53.2 | 64.5 | inactive |
| Cd55 (GeneID 13136) | 1 | 101 | 82.7 | inactive |
| Cd55 (GeneID 13136) | 2 | 84.5 | 82.2 | inactive |
| Cd55 (GeneID 13136) | 3 | 88.8 | 75.9 | inactive |
| 1110038F14Rik (GeneID 117171) | 1 | 103 | 87.7 | inactive |
| 1110038F14Rik (GeneID 117171) | 2 | 48.5 | 46.8 | inactive |
| 1110038F14Rik (GeneID 117171) | 3 | 20.7 | 27.1 | inactive |
| Prss28 (GeneID 114661) | 1 | 80.3 | 52.1 | inactive |
| Prss28 (GeneID 114661) | 2 | 40.7 | 40.7 | inactive |
| Prss28 (GeneID 114661) | 3 | 83.3 | 62.3 | inactive |
| Upf1 (GeneID 19704) | 1 | 128 | 94.7 | active |
| Upf1 (GeneID 19704) | 2 | 64.2 | 70.3 | inactive |
| Upf1 (GeneID 19704) | 3 | 89.2 | 86.2 | inactive |
| Ocstamp (GeneID 74614) | 1 | 97.5 | 88.9 | inactive |
| Ocstamp (GeneID 74614) | 2 | 65.3 | 70.4 | inactive |
| Ocstamp (GeneID 74614) | 3 | 79.9 | 55.5 | inactive |
| Clgn (GeneID 12745) | 1 | 106 | 122 | inactive |
| Clgn (GeneID 12745) | 2 | 90.5 | 89.8 | inactive |
| Clgn (GeneID 12745) | 3 | 75.6 | 111 | inactive |
| Tmem268 (GeneID 230279) | 1 | 112 | 90.3 | inactive |
| Tmem268 (GeneID 230279) | 2 | 81 | 86.2 | inactive |
| Tmem268 (GeneID 230279) | 3 | 67.6 | 67 | inactive |
| Klk1b9 (GeneID 13648) | 1 | 66 | 147 | inactive |
| Klk1b9 (GeneID 13648) | 2 | 84.2 | 46.8 | inactive |
| Klk1b9 (GeneID 13648) | 3 | 95.5 | 87.7 | inactive |
| Tom1 (GeneID 21968) | 1 | 68.6 | 75.5 | inactive |
| Tom1 (GeneID 21968) | 2 | 61.9 | 73.9 | inactive |
| Tom1 (GeneID 21968) | 3 | 58.2 | 108 | inactive |
| Or5d39 (GeneID 258291) | 1 | 35.5 | 49.2 | inactive |
| Or5d39 (GeneID 258291) | 2 | 109 | 62.6 | inactive |
| Or5d39 (GeneID 258291) | 3 | 59.9 | 78.3 | inactive |

Reformatted: 14 of the entries above
Vmn1r228 (GeneID 171226) #1: GFP, % of control = 81.3; viability (ATP), % of control = 91.2; activity call = inactive
Vmn1r228 (GeneID 171226) #2: GFP, % of control = 64; viability (ATP), % of control = 63.4; activity call = inactive
Vmn1r228 (GeneID 171226) #3: GFP, % of control = 54.7; viability (ATP), % of control = 63.9; activity call = inactive
Lancl1 (GeneID 14768) #1: GFP, % of control = 60.5; viability (ATP), % of control = 103; activity call = inactive
Lancl1 (GeneID 14768) #2: GFP, % of control = 65.9; viability (ATP), % of control = 77.2; activity call = inactive
Casp6 (GeneID 12368) #1: GFP, % of control = 99; viability (ATP), % of control = 76.5; activity call = inactive
Casp6 (GeneID 12368) #2: GFP, % of control = 49.4; viability (ATP), % of control = 67.4; activity call = inactive
Casp6 (GeneID 12368) #3: GFP, % of control = 113; viability (ATP), % of control = 60.4; activity call = inactive
Ppp4r4 (GeneID 74521) #1: GFP, % of control = 75.5; viability (ATP), % of control = 81.3; activity call = inactive
Ppp4r4 (GeneID 74521) #2: GFP, % of control = 52.6; viability (ATP), % of control = 83.7; activity call = inactive
Ppp4r4 (GeneID 74521) #3: GFP, % of control = 127; viability (ATP), % of control = 131; activity call = active
Smgc (GeneID 223809) #1: GFP, % of control = 83.9; viability (ATP), % of control = 70.6; activity call = inactive
Smgc (GeneID 223809) #2: GFP, % of control = 140; viability (ATP), % of control = 91.5; activity call = active
Smgc (GeneID 223809) #3: GFP, % of control = 98.5; viability (ATP), % of control = 60.9; activity call = inactive
